Measured values reported in patent publication US6239130A, “Phosphodiesterase 4-inhibiting diazepinoindolones” (Warner-Lambert Company, priority 1997, dated 2001).
For at least one compound, name, drawing or mass did not settle the structure.

System: PDE4 enzyme of human origin
Assay: PDE4-inhibiting activity on an enzyme preparation obtained from the U937 cell line
Format: biochemical
Protocol: In the case of the PDE4 enzymes, this value is compared with that of rolipram, a specific PDE4 inhibitor. […] Measurement of the enzyme activity of the different types of PDE, and especially of the PDE4 enzymes, is then carried out according to a method adapted from W. J. Thompson, ibidem.

| SMILES | IC50 |
| --- | --- |
| Cc1cc2c3c(c1)C(c1ccccc1)=NC(n1c(C)nc4nccnc4c1=O)C(=O)N3CC2 (centres unmarked) [Example 19A, 3-(2-Methyl-4-oxo-4H-pteridin-3-yl)-9-methyl-1-phenyl-6,7-dihydro-3H-[1,4]diazepino[6,7,1-hi]indol-4-one] | 1480 nM |
| CC(=O)OCc1nc2ccccc2c(=O)n1C1N=C(c2ccccc2)c2cc(C)cc3c2N(CC3)C1=O (centres unmarked) [Example 17, Methyl 3-(9-methyl-4-oxo-1-phenyl-3,4,6,7-tetrahydro-[1,4]diazepino[6,7,1-hi]indol-3-yl)-4-oxo-3,4dihydro-2-quinazolinylacetate] | 746 nM |
